Data on 39 targets can be found in the supplement of paper PMC12067093, “Discovery and optimisation of a covalent ligand for TRIM25 and its application to targeted protein ubiquitination” (Chemical Science, 2025).

Protein sequences, listed by entry. Tags and fused reporters are not part of them. Lines headed by an entry give the natural chain unless they say otherwise; changes in a name come on top.
UniProt Q96KR1: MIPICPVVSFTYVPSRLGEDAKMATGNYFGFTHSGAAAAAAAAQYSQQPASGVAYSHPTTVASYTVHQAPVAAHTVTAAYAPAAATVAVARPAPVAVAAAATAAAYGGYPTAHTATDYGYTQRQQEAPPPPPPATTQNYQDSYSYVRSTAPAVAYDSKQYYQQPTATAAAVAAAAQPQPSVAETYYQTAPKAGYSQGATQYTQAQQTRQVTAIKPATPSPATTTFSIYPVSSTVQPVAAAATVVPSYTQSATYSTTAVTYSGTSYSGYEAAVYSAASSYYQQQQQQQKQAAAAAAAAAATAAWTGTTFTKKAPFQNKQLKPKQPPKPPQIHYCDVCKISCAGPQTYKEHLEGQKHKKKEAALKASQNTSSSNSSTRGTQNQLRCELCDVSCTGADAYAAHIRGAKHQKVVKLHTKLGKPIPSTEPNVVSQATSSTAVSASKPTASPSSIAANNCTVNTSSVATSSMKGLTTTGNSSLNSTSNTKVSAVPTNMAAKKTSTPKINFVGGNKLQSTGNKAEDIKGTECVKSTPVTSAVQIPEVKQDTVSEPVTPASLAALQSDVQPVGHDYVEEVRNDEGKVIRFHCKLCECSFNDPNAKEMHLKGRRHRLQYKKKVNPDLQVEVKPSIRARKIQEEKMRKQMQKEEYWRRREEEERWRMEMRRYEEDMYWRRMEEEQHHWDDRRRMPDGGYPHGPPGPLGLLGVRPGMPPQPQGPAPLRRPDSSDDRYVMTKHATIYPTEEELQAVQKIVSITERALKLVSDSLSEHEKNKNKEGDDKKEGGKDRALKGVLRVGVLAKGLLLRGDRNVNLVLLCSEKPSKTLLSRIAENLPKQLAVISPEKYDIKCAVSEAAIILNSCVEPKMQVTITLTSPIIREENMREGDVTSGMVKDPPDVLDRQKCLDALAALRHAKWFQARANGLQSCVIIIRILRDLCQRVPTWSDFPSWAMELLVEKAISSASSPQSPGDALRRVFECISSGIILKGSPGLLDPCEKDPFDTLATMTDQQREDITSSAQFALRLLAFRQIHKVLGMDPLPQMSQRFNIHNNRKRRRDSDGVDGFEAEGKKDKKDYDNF
UniProt Q8N5A5: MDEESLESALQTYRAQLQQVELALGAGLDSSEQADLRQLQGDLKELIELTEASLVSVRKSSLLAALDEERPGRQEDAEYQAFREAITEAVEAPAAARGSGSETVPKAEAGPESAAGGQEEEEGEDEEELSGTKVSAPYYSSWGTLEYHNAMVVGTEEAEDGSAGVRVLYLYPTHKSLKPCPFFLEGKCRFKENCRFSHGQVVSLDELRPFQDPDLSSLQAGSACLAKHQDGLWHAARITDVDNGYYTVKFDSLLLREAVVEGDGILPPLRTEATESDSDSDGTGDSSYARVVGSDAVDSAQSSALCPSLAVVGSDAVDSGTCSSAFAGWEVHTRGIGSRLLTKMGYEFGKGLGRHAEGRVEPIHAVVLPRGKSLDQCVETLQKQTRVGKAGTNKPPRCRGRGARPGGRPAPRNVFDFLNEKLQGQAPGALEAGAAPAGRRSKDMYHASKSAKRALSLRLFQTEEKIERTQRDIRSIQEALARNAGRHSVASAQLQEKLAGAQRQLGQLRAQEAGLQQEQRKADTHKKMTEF
UniProt O75362: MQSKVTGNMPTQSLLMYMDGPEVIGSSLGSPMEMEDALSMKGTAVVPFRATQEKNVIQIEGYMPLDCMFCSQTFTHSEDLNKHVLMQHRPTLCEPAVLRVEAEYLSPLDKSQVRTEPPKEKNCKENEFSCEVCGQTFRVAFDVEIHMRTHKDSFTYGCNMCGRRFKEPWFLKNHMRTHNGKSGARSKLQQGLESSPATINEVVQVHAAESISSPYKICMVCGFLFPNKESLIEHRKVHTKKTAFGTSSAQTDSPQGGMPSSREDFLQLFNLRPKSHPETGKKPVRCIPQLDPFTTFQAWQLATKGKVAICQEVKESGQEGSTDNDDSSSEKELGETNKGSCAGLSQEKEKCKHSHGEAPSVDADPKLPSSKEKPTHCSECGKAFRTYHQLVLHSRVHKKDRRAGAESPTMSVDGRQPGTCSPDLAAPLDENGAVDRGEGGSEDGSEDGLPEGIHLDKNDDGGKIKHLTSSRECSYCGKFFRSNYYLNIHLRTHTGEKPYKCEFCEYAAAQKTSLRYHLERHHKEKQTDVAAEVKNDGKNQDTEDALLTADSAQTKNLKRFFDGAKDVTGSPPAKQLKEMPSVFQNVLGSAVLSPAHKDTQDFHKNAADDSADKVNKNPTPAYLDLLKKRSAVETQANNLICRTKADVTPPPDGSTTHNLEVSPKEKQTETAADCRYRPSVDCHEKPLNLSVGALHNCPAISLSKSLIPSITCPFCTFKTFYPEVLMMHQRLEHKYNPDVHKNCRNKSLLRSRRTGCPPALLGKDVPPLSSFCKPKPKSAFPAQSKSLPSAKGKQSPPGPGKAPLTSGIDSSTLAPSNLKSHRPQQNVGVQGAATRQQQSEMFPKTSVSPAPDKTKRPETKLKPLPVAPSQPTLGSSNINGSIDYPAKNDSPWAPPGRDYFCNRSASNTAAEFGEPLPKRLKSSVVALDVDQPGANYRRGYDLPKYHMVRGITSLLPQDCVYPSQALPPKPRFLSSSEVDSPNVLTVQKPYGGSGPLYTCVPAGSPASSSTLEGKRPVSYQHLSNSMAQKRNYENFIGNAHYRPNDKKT
UniProt Q8NC26: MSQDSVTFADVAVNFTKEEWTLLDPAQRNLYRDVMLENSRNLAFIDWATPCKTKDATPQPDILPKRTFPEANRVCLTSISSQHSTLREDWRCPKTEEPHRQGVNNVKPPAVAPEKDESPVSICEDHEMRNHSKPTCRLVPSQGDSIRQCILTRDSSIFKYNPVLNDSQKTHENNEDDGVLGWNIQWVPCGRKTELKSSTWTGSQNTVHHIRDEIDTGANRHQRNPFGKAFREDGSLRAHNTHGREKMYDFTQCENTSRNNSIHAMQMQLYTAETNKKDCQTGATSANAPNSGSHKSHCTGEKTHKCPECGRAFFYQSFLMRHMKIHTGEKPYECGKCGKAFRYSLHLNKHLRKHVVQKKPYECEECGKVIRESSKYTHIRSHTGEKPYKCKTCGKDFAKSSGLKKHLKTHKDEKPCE
UniProt Q9HBF4: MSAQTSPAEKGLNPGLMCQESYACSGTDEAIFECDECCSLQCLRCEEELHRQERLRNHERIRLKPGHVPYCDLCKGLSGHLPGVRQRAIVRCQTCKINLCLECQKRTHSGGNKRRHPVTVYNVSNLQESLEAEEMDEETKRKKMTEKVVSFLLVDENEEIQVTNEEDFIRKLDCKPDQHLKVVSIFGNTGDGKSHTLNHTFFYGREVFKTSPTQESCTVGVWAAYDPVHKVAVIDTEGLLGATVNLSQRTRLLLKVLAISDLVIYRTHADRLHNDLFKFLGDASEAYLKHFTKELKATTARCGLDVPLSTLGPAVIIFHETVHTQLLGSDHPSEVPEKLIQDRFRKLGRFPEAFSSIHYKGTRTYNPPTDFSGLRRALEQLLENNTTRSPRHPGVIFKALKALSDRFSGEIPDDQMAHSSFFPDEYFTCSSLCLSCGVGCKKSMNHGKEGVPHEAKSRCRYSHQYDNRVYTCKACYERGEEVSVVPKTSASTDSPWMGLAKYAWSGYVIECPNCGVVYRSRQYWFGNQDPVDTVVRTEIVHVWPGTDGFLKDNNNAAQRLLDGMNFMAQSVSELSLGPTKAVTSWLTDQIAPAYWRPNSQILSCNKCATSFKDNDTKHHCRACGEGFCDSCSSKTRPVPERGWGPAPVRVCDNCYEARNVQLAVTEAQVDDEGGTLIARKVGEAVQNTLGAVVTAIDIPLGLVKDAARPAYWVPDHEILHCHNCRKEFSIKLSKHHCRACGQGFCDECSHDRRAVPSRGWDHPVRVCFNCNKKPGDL
UniProt O60281: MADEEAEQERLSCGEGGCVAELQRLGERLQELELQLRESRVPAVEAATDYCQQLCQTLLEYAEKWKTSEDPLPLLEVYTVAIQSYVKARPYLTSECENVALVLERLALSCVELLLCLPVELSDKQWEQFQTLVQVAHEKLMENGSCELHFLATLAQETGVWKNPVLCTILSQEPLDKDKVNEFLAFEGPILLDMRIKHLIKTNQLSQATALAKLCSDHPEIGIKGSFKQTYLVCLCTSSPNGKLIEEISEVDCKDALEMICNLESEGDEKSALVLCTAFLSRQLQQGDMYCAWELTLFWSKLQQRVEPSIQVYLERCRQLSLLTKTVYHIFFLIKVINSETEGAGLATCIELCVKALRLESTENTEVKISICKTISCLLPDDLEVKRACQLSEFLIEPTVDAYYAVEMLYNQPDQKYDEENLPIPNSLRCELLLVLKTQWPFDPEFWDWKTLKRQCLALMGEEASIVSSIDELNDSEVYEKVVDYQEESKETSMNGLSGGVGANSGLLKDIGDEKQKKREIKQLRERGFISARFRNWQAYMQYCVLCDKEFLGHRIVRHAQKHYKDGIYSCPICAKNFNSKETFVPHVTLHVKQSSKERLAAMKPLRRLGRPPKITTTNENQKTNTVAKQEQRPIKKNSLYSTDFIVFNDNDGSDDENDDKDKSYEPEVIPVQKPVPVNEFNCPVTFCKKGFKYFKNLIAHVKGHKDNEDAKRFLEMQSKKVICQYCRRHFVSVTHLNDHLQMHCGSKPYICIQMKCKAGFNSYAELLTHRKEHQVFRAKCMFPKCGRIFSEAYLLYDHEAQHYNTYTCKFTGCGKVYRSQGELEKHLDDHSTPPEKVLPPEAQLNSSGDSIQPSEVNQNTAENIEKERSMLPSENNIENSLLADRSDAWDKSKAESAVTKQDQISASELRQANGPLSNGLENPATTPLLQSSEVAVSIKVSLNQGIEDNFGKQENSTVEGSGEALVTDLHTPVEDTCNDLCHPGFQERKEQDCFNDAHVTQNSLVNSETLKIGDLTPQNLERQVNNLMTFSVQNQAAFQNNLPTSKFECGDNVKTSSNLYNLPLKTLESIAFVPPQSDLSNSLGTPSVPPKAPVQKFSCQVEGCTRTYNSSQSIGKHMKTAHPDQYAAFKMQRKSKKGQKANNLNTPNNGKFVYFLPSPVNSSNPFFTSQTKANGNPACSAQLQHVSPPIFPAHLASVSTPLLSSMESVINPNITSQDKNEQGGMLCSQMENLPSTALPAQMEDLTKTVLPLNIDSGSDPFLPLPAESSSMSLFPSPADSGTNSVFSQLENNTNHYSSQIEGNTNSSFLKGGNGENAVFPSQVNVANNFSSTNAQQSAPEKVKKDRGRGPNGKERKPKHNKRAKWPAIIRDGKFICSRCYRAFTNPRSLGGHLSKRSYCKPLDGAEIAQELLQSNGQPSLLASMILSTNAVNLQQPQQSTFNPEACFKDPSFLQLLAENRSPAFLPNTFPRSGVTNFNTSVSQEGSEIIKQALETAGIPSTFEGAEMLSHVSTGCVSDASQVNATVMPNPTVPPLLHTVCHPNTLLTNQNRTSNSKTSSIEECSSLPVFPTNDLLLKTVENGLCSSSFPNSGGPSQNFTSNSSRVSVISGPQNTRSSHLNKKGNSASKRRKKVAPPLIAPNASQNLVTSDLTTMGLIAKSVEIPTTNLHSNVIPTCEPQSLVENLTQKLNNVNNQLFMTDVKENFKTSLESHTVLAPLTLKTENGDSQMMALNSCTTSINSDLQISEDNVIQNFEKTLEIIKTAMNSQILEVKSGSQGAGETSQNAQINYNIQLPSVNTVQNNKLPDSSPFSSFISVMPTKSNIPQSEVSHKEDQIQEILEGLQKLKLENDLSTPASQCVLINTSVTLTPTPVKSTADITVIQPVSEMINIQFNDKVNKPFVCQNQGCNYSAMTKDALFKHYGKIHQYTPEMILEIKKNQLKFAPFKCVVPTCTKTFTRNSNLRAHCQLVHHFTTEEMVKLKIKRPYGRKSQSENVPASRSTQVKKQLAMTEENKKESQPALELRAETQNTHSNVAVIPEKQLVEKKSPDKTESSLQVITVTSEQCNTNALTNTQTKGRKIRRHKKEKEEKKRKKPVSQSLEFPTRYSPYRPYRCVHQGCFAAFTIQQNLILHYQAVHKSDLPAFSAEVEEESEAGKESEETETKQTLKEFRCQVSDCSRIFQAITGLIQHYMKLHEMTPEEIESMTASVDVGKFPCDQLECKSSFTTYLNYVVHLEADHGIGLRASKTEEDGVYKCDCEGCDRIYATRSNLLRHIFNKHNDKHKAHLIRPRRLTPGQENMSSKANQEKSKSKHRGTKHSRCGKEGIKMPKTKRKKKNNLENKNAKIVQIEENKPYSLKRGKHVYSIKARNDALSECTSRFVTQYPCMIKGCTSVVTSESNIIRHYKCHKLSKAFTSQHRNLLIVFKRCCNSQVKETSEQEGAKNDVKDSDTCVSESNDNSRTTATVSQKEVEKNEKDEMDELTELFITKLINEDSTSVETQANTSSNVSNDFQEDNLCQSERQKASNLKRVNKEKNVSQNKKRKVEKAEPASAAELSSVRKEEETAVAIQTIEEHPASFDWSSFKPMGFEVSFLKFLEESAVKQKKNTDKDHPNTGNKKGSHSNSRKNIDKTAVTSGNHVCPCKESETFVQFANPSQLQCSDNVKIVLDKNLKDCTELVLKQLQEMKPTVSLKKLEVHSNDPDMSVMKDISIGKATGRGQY

Compound in the test: CC1Cc2ccccc2N1C(=O)C1CCCN(C1)C(=O)CCl (mixture of isomers) [TRIM25 ligand 11 (diastereomer mixture)]
Put plainly: probe-labelled cysteine peptide fold change vs DMSO (competition) (log2 fold change); higher = less target engagement (more negative = stronger competition). The following applies: THP-1, incubation time: 4 h.

Some of the results follow.
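Also: competitive chemoproteomic profiling in live THP-1 cells with an iodoacetamide desthiobiotin (IA-DTB) probe, comparing probe-labelled peptide intensities in compound-treated cells against DMSO-treated controls.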

As for “ZFC3H1_O60293_241_QIQLELECINKDEK (UniProt O60293)”, the “probe-labelled cysteine peptide fold change” value reads like this: (10 µM) -0.184; (50 µM) -0.442.
In the same order, the values of “ZFR_Q96KR1_387+391_CELCDVSCTGADAYAAHIR (UniProt Q96KR1)” are 0.278 and -0.0133.
In the same order, the values of “ZNF280C_Q8ND82_714_THTCQVIIENVSK (UniProt Q8ND82)” are 0.0871 and -0.00287.
For the target “ZGPAT_Q8N5A5_180_SLKPCPFFLEGK (UniProt Q8N5A5)”, the “probe-labelled cysteine peptide fold change” value is, setting by setting: (10 µM) -0.064; (50 µM) -0.157.
As for “ZFP36L2_P47974_212_CHFIHNADER (UniProt P47974)”, the “probe-labelled cysteine peptide fold change” value is -0.166 (10 µM) and -0.0526 (50 µM).
On to “ZNF277_Q9NRM2_137_INSTAPFEEQENYFLLCDVLPEDR (UniProt Q9NRM2)”, for which the “probe-labelled cysteine peptide fold change” value runs as follows: (10 µM) -0.0488; (50 µM) 0.293.
On to “ZMYM4_Q5VZL5_732_INNVMAMCEYCK (UniProt Q5VZL5)”, for which the “probe-labelled cysteine peptide fold change” value is -0.00457 (10 µM) and -0.0127 (50 µM).
In the same order, the values of “ZNF217_O75362_641_SAVETQANNLICR (UniProt O75362)” are -0.011 and -0.196.
As to “ZNF114_Q8NC26_51_NLAFIDWATPCK (UniProt Q8NC26)”, the “probe-labelled cysteine peptide fold change” value is -0.0959 (10 µM) and 0.0891 (50 µM).
On to “ZNF644_Q9H582_588_SATYICK (UniProt Q9H582)”, for which the “probe-labelled cysteine peptide fold change” value reads like this: (10 µM) 0.135; (50 µM) 0.132.
On to “ZNF638_Q14966_652_NLEDDTLSECK (UniProt Q14966)”, for which the “probe-labelled cysteine peptide fold change” value runs as follows: (10 µM) -0.0183; (50 µM) -0.243.
In the case of “ZFYVE1_Q9HBF4_217_TSPTQESCTVGVWAAYDPVHK (UniProt Q9HBF4)”, the “probe-labelled cysteine peptide fold change” value is, setting by setting: (10 µM) 0.285; (50 µM) 0.334.
Turning to “ZNF512_Q96ME7_171+174_GSVSCPTCQAVGR (UniProt Q96ME7)”, the “probe-labelled cysteine peptide fold change” value (10 µM) was -0.0279 and the “probe-labelled cysteine peptide fold change” value (50 µM) is -0.0163.
In the same order, the values of “ZMYM2_Q9UBW7_755_DFCSEDCCK (UniProt Q9UBW7)” are -0.0894 and 0.0415.
As to “ZNF106_Q9H2Y7_1853_NCDAFFTAR (UniProt Q9H2Y7)”, the “probe-labelled cysteine peptide fold change” value reads like this: (10 µM) 0.0391; (50 µM) -0.0457.
In the case of “ZNF667_Q5HYK9_146_GHSGKKPLKCNDCGK (UniProt Q5HYK9)”, the “probe-labelled cysteine peptide fold change” value reads like this: (10 µM) 0.00135; (50 µM) 0.108.
With “ZMYM3_Q14202_1197_VEEEHLWECK (UniProt Q14202)”, the “probe-labelled cysteine peptide fold change” value runs as follows: (10 µM) 0.135; (50 µM) 0.175.
In the case of “ZNF106_Q9H2Y7_1653_RLEIFECHGPR (UniProt Q9H2Y7)”, the “probe-labelled cysteine peptide fold change” value worked out at 0.0782 (10 µM) and 0.0992 (50 µM).
With “ZNF451_Q9Y4E5_364+367_GYCPDCNQVFVDETSTQNHK (UniProt Q9Y4E5)”, the “probe-labelled cysteine peptide fold change” value (10 µM) came out at 0.0418 and the “probe-labelled cysteine peptide fold change” value (50 µM) is -0.132.
For the target “ZNF691_Q5VV52_230_THLEPAPYICCECGK (UniProt Q5VV52)”, the “probe-labelled cysteine peptide fold change” value is -0.272 (10 µM) and -0.8 (50 µM).
As to “ZMYND11_Q15326_347_ACDELELHQR (UniProt Q15326)”, the “probe-labelled cysteine peptide fold change” value is 0.0457 (10 µM) and -0.0127 (50 µM).
Regarding “ZMYND8_Q9ULU4_1062_SCTQSATAPQQEADAEVNTETLNK (UniProt Q9ULU4)”, the “probe-labelled cysteine peptide fold change” value worked out at 0.0214 (10 µM) and 0.224 (50 µM).
Taken in the same sequence, the figures for “ZNF292_O60281_2260_CDCEGCDR (UniProt O60281)” were 0.0787 and 0.0706.
Turning to “ZMYM3_Q14202_968_ASSDLCDLVSNQSAEGLLEDCDLFGPAR (UniProt Q14202)”, the “probe-labelled cysteine peptide fold change” value (10 µM) is 0.0145 and the “probe-labelled cysteine peptide fold change” value (50 µM) was -0.207.
For the target “ZNF292_O60281_2454_DSDTCVSESNDNSR (UniProt O60281)”, the “probe-labelled cysteine peptide fold change” value (10 µM) was -0.0986 and the “probe-labelled cysteine peptide fold change” value (50 µM) was -0.103.
Regarding “ZNF217_O75362_310_VAICQEVK (UniProt O75362)”, the “probe-labelled cysteine peptide fold change” value reads like this: (10 µM) 0.36; (50 µM) 0.131.
With “ZNF618_Q5T7W0_668_SMHEVIELLNVCEDLAGSTGLAK (UniProt Q5T7W0)”, the “probe-labelled cysteine peptide fold change” value came out at 0.204 (10 µM) and 0.0317 (50 µM).
In the same order, the values of “ZMYM4_Q5VZL5_1480_CSESVK (UniProt Q5VZL5)” are -0.0865 and -0.0253.
In the same order, the values of “ZNF319_Q9P2F9_307_ESSELLQHPCTPSGERPFR (UniProt Q9P2F9)” are -0.102 and -0.0637.
“ZFAT_Q9P243_392_EALDELCLMTR (UniProt Q9P243)”: the “probe-labelled cysteine peptide fold change” value reads like this: (10 µM) 0.138; (50 µM) -0.0477.
In the same order, the values of “ZFR_Q96KR1_844+856_CAVSEAAIILNSCVEPK (UniProt Q96KR1)” are 0.0475 and -0.0422.
Take “ZNF316_A6NFI3_808_AHTGERPYACGECGR (UniProt A6NFI3)”: the “probe-labelled cysteine peptide fold change” value is, setting by setting: (10 µM) -0.0968; (50 µM) -0.0681.
As for “ZFR_Q96KR1_384_CELCDVSCTGADAYAAHIR (UniProt Q96KR1)”, the “probe-labelled cysteine peptide fold change” value runs as follows: (10 µM) 0.222; (50 µM) 0.0878.
Take “ZNF124_Q15973_245_AFSCLSSLQGHIK (UniProt Q15973)”: the “probe-labelled cysteine peptide fold change” value was 0.163 (10 µM) and -0.0798 (50 µM).
Take “ZMYM3_Q14202_484_FCNTTCLGAYK (UniProt Q14202)”: the “probe-labelled cysteine peptide fold change” value is, setting by setting: (10 µM) -0.00156; (50 µM) -0.000804.
In the case of “ZFYVE1_Q9HBF4_45_CEEELHRQER (UniProt Q9HBF4)”, the “probe-labelled cysteine peptide fold change” value is, setting by setting: (10 µM) -0.129; (50 µM) -0.0541.
As to “ZNF516_Q92618_165_GAEGSACAPGEAK (UniProt Q92618)”, the “probe-labelled cysteine peptide fold change” value reads like this: (10 µM) -0.0124; (50 µM) 0.0512.
With “ZMYND8_Q9ULU4_196_MKQPGTDAFQKPVPLEQHPDYAEYIFHPMDLCTLEK (UniProt Q9ULU4)”, the “probe-labelled cysteine peptide fold change” value by setting is: (10 µM) -0.0551; (50 µM) -0.248.
With “ZFR_Q96KR1_991_GSPGLLDPCEK (UniProt Q96KR1)”, the “probe-labelled cysteine peptide fold change” value (10 µM) was determined as 0.164 and the “probe-labelled cysteine peptide fold change” value (50 µM) was 0.0514.
